In test [1] the target is T1, Flag-FAAP24 (full-length, wild type) (human) (UniProt Q9BTP7).
T1 sequence: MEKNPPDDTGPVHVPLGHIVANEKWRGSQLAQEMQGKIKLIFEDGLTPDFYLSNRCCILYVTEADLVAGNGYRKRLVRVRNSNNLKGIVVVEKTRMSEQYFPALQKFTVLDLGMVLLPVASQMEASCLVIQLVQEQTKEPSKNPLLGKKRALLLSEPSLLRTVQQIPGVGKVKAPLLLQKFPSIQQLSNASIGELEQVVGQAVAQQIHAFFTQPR
Briefly: co-IP; GFP-FANCM and Flag-FAAP24 over-expressed in cells; which partner was precipitated is not told in the text shown.

Test [2] deals with T2, full-length human FAAP24 (residues 1–215) (human) (UniProt Q9BTP7).
T2 sequence: T1 sequence
The experiment in a line: co-expression and co-purification (Ni-NTA, gel filtration); FANCM fragment and FAAP24-His6 co-expressed in E. coli; complex captured on Ni-NTA by the His6 tag of FAAP24 (20 mM Tris-HCl pH 8.0, 500 mM NaCl, 10% glycerol), then Superdex 200 16/60 in 10 mM HEPES pH 7.5, 100 mM NaCl, 2 mM MgCl2.

For test [3], the target named is T3, FAAP24-M2 (R161A/Q164A/K171A), recombinant protein used in EMSA (human) (UniProt Q9BTP7).
T3 sequence: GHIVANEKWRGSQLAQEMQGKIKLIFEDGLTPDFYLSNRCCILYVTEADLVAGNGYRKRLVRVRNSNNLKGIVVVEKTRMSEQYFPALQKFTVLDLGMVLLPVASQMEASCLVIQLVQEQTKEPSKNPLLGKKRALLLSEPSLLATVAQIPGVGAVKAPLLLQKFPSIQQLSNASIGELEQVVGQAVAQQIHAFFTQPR
Briefly: SEC; size-exclusion chromatography of the purified (co-expressed) wild-type and mutant FANCM-FAAP24 complexes used in EMSA; both purified.

In test [4] the target is T4, N-terminal truncated form of human FAAP24 (residues 17–215) (human) (UniProt Q9BTP7).
T4 sequence: T3 sequence with A145R, A148Q, A155K
The description is as above.

For test [5], the target named is T4, N-terminal truncated form of human FAAP24 (residues 17–215) (human). The experiment in a line: crystal structure; co-expressed and co-purified FANCMS-FAAP24S complex; hanging drop, 20°C, 1.0 M (NH4)2SO4, 0.1 M HEPES pH 7.2; MAD, refined to 2.9 Å; both purified.
Test [6] addresses T5, FAAP24-M1 (H208A), recombinant protein used in EMSA (human) (UniProt Q9BTP7).
T5 sequence: T3 sequence with A145R, A148Q, A155K, H192A
Briefly: SEC; size-exclusion chromatography of the purified (co-expressed) wild-type and mutant FANCM-FAAP24 complexes used in EMSA; both purified.

This note sets out measurements from publication PMC3905867.

Residue numbers refer to the chain shown, from its start. Names and notes keep the numbering of the source. These are yes or no findings as the source states them, for the method shown. For some of these results: In cells and extracts the contact can be indirect. For some of these results: Tags and fused reporters may be left off the sequences shown. Some binding calls cover weakened binding; strength is not graded here.

Consider “GFP-FANCMΔNΔH (FANCM 1–1813, both nuclease and (HhH)2 domains deleted) (from UniProt Q8IYD8 1-1813) (domain or fragment)”, for which, in test [1], the binding result is listed as “no binding”.

B1: C-terminal fragment of human FANCM (residues 1727–2048) (domain or fragment, UniProt Q8IYD8 1727-2048)
chain: LAKQSKQTSLNLKDTISEVSDFKPQNHNEVQSTTPPFTTVDSQKDCRKFPVPQKDGSALEDSSTSGASCSKSRPHLAGTHTSLRLPQEGKGTCILVGGHEITSGLEVISSLRAIHGLQVEVCPLNGCDYIVSNRMVVERRSQSEMLNSVNKNKFIEQIQHLQSMFERICVIVEKDREKTGDTSRMFRRTKSYDSLLTTLIGAGIRILFSSCQEETADLLKELSLVEQRKNVGIHVPTVVNSNKSEALQFYLSIPNISYITALNMCHQFSSVKRMANSSLQEISMYAQVTHQKAEEIYRYIHYVFDIQMLPNDLNQDRLKSDI
Regarding B1, the binding result in test [2] was “binds”.

B2: shorter form of the C-terminal segment of human FANCM (residues 1813–2031) (domain or fragment, UniProt Q8IYD8 1813-2031)
chain: QEGKGTCILVGGHEITSGLEVISSLRAIHGLQVEVCPLNGCDYIVSNRMVVERRSQSEMLNSVNKNKFIEQIQHLQSMFERICVIVEKDREKTGDTSRMFRRTKSYDSLLTTLIGAGIRILFSSCQEETADLLKELSLVEQRKNVGIHVPTVVNSNKSEALQFYLSIPNISYITALNMCHQFSSVKRMANSSLQEISMYAQVTHQKAEEIYRYIHYVFD
With B2, the binding entry in test [3], in test [4] and in test [5] was “binds” throughout.

B3: FANCM-M1 (K1998A/R1999A), recombinant C-terminal segment used in EMSA (domain or fragment, UniProt Q8IYD8 1813-2031)
chain: B2 chain with K186A, R187A
As for B3, the binding entry in test [6] was “binds”.

B4: C-terminal fragment of human FANCM (residues 1799–2048) (domain or fragment, UniProt Q8IYD8 1799-2048)
chain: RPHLAGTHTSLRLPQEGKGTCILVGGHEITSGLEVISSLRAIHGLQVEVCPLNGCDYIVSNRMVVERRSQSEMLNSVNKNKFIEQIQHLQSMFERICVIVEKDREKTGDTSRMFRRTKSYDSLLTTLIGAGIRILFSSCQEETADLLKELSLVEQRKNVGIHVPTVVNSNKSEALQFYLSIPNISYITALNMCHQFSSVKRMANSSLQEISMYAQVTHQKAEEIYRYIHYVFDIQMLPNDLNQDRLKSDI
On to B4, for which, in test [2], the binding result is recorded as “binds”.
